Results from patent US7410966B2, “Use of and some novel imidazopyridines” (AstraZeneca AB, priority 2002, dated 2008).
Counter-ions that a name gives are not always drawn. Some of these results come from one statement about several compounds together.

Molecular target: T1, recombinant human Itk kinase domain fused with GST (Homo sapiens, UniProt Q08881)
T1 construct: recombinant human Itk kinase domain fused with GST (Glutathione S-Transferase); GST (Glutathione S-Transferase); made in house; host or cells: High Five insect cells
T1 sequence (Q08881 363-615 limits assumed): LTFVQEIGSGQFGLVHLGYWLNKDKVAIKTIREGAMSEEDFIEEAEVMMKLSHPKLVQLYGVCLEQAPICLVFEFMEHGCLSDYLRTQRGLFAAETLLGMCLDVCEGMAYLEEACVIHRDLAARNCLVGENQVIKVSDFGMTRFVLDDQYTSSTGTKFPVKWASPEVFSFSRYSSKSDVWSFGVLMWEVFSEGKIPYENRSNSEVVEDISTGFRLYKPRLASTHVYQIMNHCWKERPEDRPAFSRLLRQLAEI
Assay: Itk LANCE TRF Assay
Format: biochemical
Settings: 2 μM biotinylated peptide substrate, 50 μM ATP, 50 minutes RT, read-out: Inhibition of Kinase Itk (IC50 μM)

| SMILES | IC50 [µM] |
| --- | --- |
| CC(C)Oc1ccc(-c2nc3cc(Br)cnc3[nH]2)cc1 [Example 23, 6-Bromo-2-(4-isopropoxyphenyl)-3H-imidazo[4,5-b]pyridine trifluoroacetate] | < 25 |
| CC(=O)N1CCN(CCOc2ccc(-c3nc4cc(Br)cnc4[nH]3)cc2)CC1 [Example 63, 2-{4-[2-(4-Acetylpiperazin-1-yl)ethoxy]phenyl}-6-bromo-3H-imidazo[4,5-b]pyridine bis(trifluoroacetate)] | < 25 |
| Brc1cnc2[nH]c(-c3ccc(OCCN4CCN(c5ccccc5)CC4)cc3)nc2c1 [Example 66, 6-Bromo-2-{4-[2-(4-phenylpiperazin-1-yl)ethoxy]phenyl}-3H-imidazo[4,5-b]pyridine bis(trifluoroacetate)] | < 25 |
| COc1ccccc1CNc1ccc(-c2nc3cc(Br)cnc3[nH]2)cc1 [Example 181, N-[4-(6-Bromo-3H-imidazo[4,5-b]pyridin-2-yl)phenyl]-N-(2-methoxybenzyl)amine bis(trifluoroacetate)] | < 25 |
| Cc1c(Cl)cnc2[nH]c(-c3ccc(N)c(O)c3)nc12 [Example 249, 2-Amino-5-(6-chloro-7-methyl-3H-imidazo[4,5-b]pyridin-2-yl)phenol] | < 25 |
| Brc1cnc2[nH]c(-c3ccc(OCCNCCc4c[nH]cn4)cc3)nc2c1 [Example 95, N-{2-[4-(6-Bromo-3H-imidazo[4,5-b]pyridin-2-yl)phenoxy]ethyl}-N-[2-(1H-imidazol-4-yl)ethyl]amine bis(trifluoroacetate)] | < 25 |
| Brc1cnc2[nH]c(-c3n[nH]cc3Br)nc2c1 [Example 12, 6-Bromo-2-(4-bromo-1H-pyrazol-3-yl)-3H-imidazo[4,5-b]pyridine] | < 25 |
| Cc1ccccc1-c1nc2cc(Br)cnc2[nH]1 [Example 21, 6-Bromo-2-(2-methylphenyl)-3H-imidazo[4,5-b]pyridine trifluoroacetate] | < 25 |
| COc1c(Cl)cnc2[nH]c(-c3ccc(N(Cc4cccc(C#N)c4)Cc4cccc(C#N)c4)cc3)nc12 [Example 270, 6-Chloro-2-{4-[di(3-cyanobenzyl)amino]phenyl}-7-methoxy-1-yl-3H-imidazo[4,5-b]pyridine] | < 25 |
| CCN(CC)CC(O)COc1ccc(-c2nc3cc(Br)cnc3[nH]2)cc1 (stereo not drawn) [Example 126, 1-[4-(6-Bromo-3H-imidazo[4,5-b]pyridin-2-yl)phenoxy]-3-(diethylamino)propan-2-ol] | < 25 |
| N#Cc1cnc2[nH]c(-c3ccc(OCCN4CCOCC4)cc3)nc2c1C#N [Example 242, 2-[4-(2-Morpholin-4-ylethoxy)phenyl]-3H-imidazo[4,5-b]pyridine 6,7-dicarbonitrile] | < 25 |
| Clc1ccc(CNCCOc2ccc(-c3nc4cc(Br)cnc4[nH]3)cc2)cc1 [Example 71, N-{2-[4-(6-Bromo-3H-imidazo[4,5-b]pyridin-2-yl)phenoxy]ethyl}-N-(4-chlorobenzyl)amine bis(trifluoroacetate)] | < 25 |
| CS(=O)(=O)c1ccc(Nc2c(Cl)cnc3nc(-c4ccc(OCCN5CCOCC5)cc4)[nH]c23)cc1 [Example 229, 6-Chloro-N-[4-(methylsulfonyl)phenyl]-2-{4-[2-(4-morpholinyl)ethoxy]phenyl}-1H-imidazo[4,5-b]pyridin-7-amine] | < 25 |
| CN(C)C1CCN(CC(O)COc2ccc(-c3nc4cc(Br)cnc4[nH]3)cc2)C1 (stereo not drawn) [Example 129, 1-[4-(6-Bromo-3H-imidazo[4,5-b]pyridin-2-yl)phenoxy]-3-[3-(dimethylamino)pyrrolidin-1-yl]propan-2-ol bis(trifluoroacetate)] | < 25 |
| NC1CCN(c2c(Cl)cnc3nc(-c4ccc(OCCN5CCOCC5)cc4)[nH]c23)C1 (stereo not drawn) [Example 214, 1-(6-Chloro-2-{4-[2-(4-morpholinyl)ethoxy]phenyl}-1H-imidazo[4,5-b]pyridin-7-yl)-3-pyrrolidinamine] | < 25 |
| COc1c(Cl)cnc2nc(-c3ccc(NCc4cccc(C#N)c4)cc3)[nH]c12 [Example 271] | < 25 |
| OCCOc1ccc(-c2nc3cc(Br)cnc3[nH]2)cc1 [Example 19, 2-[4-(6-Bromo-3H-imidazo[4,5-b]pyridin-2-yl)phenoxy]ethanol] | < 25 |
| CNCCOc1ccc(-c2nc3cc(Br)cnc3[nH]2)cc1 [Example 43, N-(2-[4-(6-Bromo-3H-imidazo[4,5-b]pyridin-2-yl)phenoxy]ethyl}-N-methylamine] | < 25 |
| Cc1cnc2[nH]c(-c3ccc(N(C)C)cc3)nc2c1 [Example 35, N,N-Dimethyl-N-[4-(6-methyl-3H-imidazo[4,5-b]pyridin-2-yl)phenyl]amine bis(trifluoroacetate)] | < 25 |
| Brc1cnc2[nH]c(-c3ccc(OCC4CO4)cc3)nc2c1 (stereo not drawn) [Example 121, 6-Bromo-2-[4-(oxiran-2-ylmethoxy)phenyl]-3H-imidazo[4,5-b]pyridine] | < 25 |

| SMILES | IC50 [µM] |
| --- | --- |
| COCCNCCOc1ccc(-c2nc3cc(Br)cnc3[nH]2)cc1 [Example 76, N-{2-[4-(6-Bromo-3H-imidazo[4,5-b]pyridin-2-yl)phenoxy]ethyl}-N-(2-methoxyethyl)amine bis(trifluoroacetate)] | < 25 |
| Clc1cnc2nc(-c3ccc(OCCN4CCOCC4)cc3)[nH]c2c1N1CCOCC1 [Example 218, 6-Chloro-7-{4-morpholinyl)-2-{4-[2-(4-morpholinyl)ethoxy]phenyl}-1H-imidazo[4,5-b]pyridine] | < 25 |
| CC(CO)NCC(O)COc1ccc(-c2nc3cc(Br)cnc3[nH]2)cc1 (stereo not drawn) [Example 149, 2-({3-[4-(6-Bromo-3H-imidazo[4,5-b]pyridin-2-yl)phenoxy]-2-hydroxypropyl}amino)propan-1-ol bis(trifluoroacetate)] | < 25 |
| COc1c(Cl)cnc2nc(-c3ccc(NS(=O)(=O)c4ccc(C#N)cc4)cc3)[nH]c12 [Example 272, N-[4-(6-Chloro-7-methoxy-1H-imidazo[4,5-b]pyridin-2-yl)phenyl]-4-cyanobenzenesulfonamide] | < 25 |
| Brc1cnc2[nH]c(-c3ccc(NCc4ccccc4)nc3)nc2c1 [Example 204, N-Benzyl-5-(6-bromo-3H-imidazo[4,5-b]pyridin-2-yl)pyridin-2-amine bis(trifluoroacetate)] | < 25 |
| Cc1c(Cl)cnc2[nH]c(-c3ccc(N4CCN(C)CC4)c(N)c3)nc12 [Example 253, [5-(6-Chloro-7-methyl-3H-imidazo[4,5-b]pyridin-2-yl)-2-(4-methylpiperazin-1-yl)phenyl]amine] | < 25 |
| CN(C)CCCOc1ccc(-c2nc3cc(Br)cnc3[nH]2)cc1 [Example 2, N-{3-[4-(6-Bromo-3H-imidazo[4,5-b]pyridin-2-yl)phenoxy]propyl}-N,N-dimethylamine] | < 25 |
| OCC1CCCCN1CCOc1ccc(-c2nc3cc(Br)cnc3[nH]2)cc1 (stereo not drawn) [Example 102, (1-{2-[4-(6-Bromo-3H-imidazo[4,5-b]pyridin-2-yl)phenoxy]ethyl}piperidin-2-yl)methanol bis(trifluoroacetate)] | < 25 |
| OC1CCC(NCCOc2ccc(-c3nc4cc(Br)cnc4[nH]3)cc2)CC1 (stereo not drawn) [Example 101, 4-({2-[4-(6-Bromo-3H-imidazo[4,5-b]pyridin-2-yl)phenoxy]ethyl}amino)cyclohexanol bis(trifluoroacetate)] | < 25 |
| Brc1cnc2[nH]c(-c3ccc(OCCNCc4ccco4)cc3)nc2c1 [Example 78, N-{2-[4-(6-Bromo-3H-imidazo[4,5-b]pyridin-2-yl)phenoxy]ethyl}-N-(2-furylmethyl)amine bis(trifluoroacetate)] | < 25 |
| Brc1cnc2[nH]c(-c3ccc(OCCNC4=NCCS4)cc3)nc2c1 [Example 115, N-{2-[4-(6-Bromo-3H-imidazo[4,5-b]pyridin-2-yl)phenoxy]ethyl}-4,5-dihydro-1,3-thiazol-2-amine bis(trifluoroacetate)] | < 25 |
| CN(CCOc1ccc(-c2nc3cc(Br)cnc3[nH]2)cc1)Cc1ccccc1 [Example 62, N-Benzyl-N-{2-[4-(6-bromo-3H-imidazo[4,5-b]pyridin-2-yl)phenoxy]ethyl}-N-methylamine bis(trifluoroacetate)] | < 25 |
| COc1ccccc1Nc1c(Cl)cnc2nc(-c3ccc(OCCN4CCOCC4)cc3)[nH]c12 [Example 207, 6-Chloro-N-(2-methoxyphenyl)-2-[4-{2-(4-morpholinyl)ethoxy]phenyl}-1H-imidazo[4,5-b]pyridin-7-amine] | < 25 |
| Brc1cnc2[nH]c(-c3ccc(NCc4ccc(-c5ccccn5)s4)cc3)nc2c1 [Example 199, N-(4-(6-Bromo-3H-imidazo[4,5-b]pyridin-2-yl)phenyl]-N-[(5-pyridin-2-ylthien-2-yl)methyl]amine bis(trifluoroacetate)] | < 25 |
| Cc1noc(C)c1CNc1ccc(-c2nc3cc(Br)cnc3[nH]2)cc1 [Example 197, N-[4-(6-Bromo-3H-imidazo[4,5-b]pyridin-2-yl)phenyl]-N-[(3,5-dimethylisoxazol-4-yl)methyl]amine bis(trifluoroacetate)] | < 25 |
| Brc1cnc2[nH]c(-c3ccc(NCc4ccsc4)cc3)nc2c1 [Example 190, N-[4-(6-Bromo-3H-imidazo[4,5-b]pyridin-2-yl)phenyl]-N-(thien-3-ylmethyl)amine bis(trifluoroacetate)] | < 25 |
| Cc1c(Br)cnc2nc(-c3ccc(NS(=O)(=O)c4cccc5cccnc45)cc3)[nH]c12 [Example 263, N-[4-(6-Bromo-7-methyl-1H-imidazo[4,5-b]pyridin-2-yl)phenyl]quinoline-8-sulfonamide] | < 25 |
| Clc1cnc2nc(-c3ccc(OCCN4CCOCC4)cc3)[nH]c2c1Nc1ccc(N2CCOCC2)cc1 [Example 230] | < 25 |
| CC(O)CNCCOc1ccc(-c2nc3cc(Br)cnc3[nH]2)cc1 (stereo not drawn) [Example 75] | < 25 |
